Reference: PubChem BioAssay AID1259405 (NCATS, 2018)
This is one part, drawn at random, of about 50,000 reagents. About 4,000 of them (8%) were called active. 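Mouse siRNA library applied to hamster cells; one well for each siRNA.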 The numbers tell different reagents against one gene apart.

Assay: 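Mouse-designed siRNAs used to find CHO productivity engineering targets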 (primary screen)
Cells: Chinese hamster CHO-K1 ovary cells with stable secreted eGFP expression
Reagent: single siRNA against mouse genes, 0.8 pmol siRNA per well (2 µl of 400 nM stock)
Duration: 3 days
Measurement: 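Per-well intracellular GFP measured by laser scanning cytometry, plus viability from ATP luminescence, each relative to plate median of non-targeting control wells, in %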
Reading the numbers: GFP, % of control: higher = more GFP per well, higher productivity; viability (ATP), % of control: higher = more viable cells (more ATP)
Active means: 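Called active when intracellular GFP, relative to negative control, is at or above 120%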

How did the screen score Or51a7 #1?
GFP, % of control: 126; viability (ATP), % of control: 88.9; call: active

Which result is listed for Or51a7 #2?
GFP, % of control: 88.3; viability (ATP), % of control: 79.3; call: inactive

What did the screen give for Or51a7 #3?
GFP, % of control: 81.6; viability (ATP), % of control: 71.6; call: inactive

How did the screen score Scart2 #1?
GFP, % of control: 120; viability (ATP), % of control: 75; call: active

With Scart2 #2, what does the deposit list?
GFP, % of control: 0; viability (ATP), % of control: 126; call: inactive

With Scart2 #3, what was measured?
GFP, % of control: 89.4; viability (ATP), % of control: 62.6; call: inactive

For Mtfr1l #1, what was measured?
GFP, % of control: 109; viability (ATP), % of control: 90.2; call: inactive

For Mtfr1l #2, what was measured?
GFP, % of control: 79.8; viability (ATP), % of control: 79.1; call: inactive

Which result is listed for Mtfr1l #3?
GFP, % of control: 80.5; viability (ATP), % of control: 71.7; call: inactive

Which result is listed for Ascc2 #1?
GFP, % of control: 75.4; viability (ATP), % of control: 55.9; call: inactive

What did the screen give for Ascc2 #2?
GFP, % of control: 83.4; viability (ATP), % of control: 78.4; call: inactive

Which result is listed for Ascc2 #3?
GFP, % of control: 126; viability (ATP), % of control: 77.7; call: active

Which result is listed for Otof #1?
GFP, % of control: 63.3; viability (ATP), % of control: 76.1; call: inactive

How did the screen score Otof #2?
GFP, % of control: 105; viability (ATP), % of control: 72; call: inactive

How did the screen score Otof #3?
GFP, % of control: 85.7; viability (ATP), % of control: 77.7; call: inactive

Which result is listed for Csn1s2b #1?
GFP, % of control: 90.1; viability (ATP), % of control: 69.1; call: inactive

For Csn1s2b #2, how do the results read?
GFP, % of control: 62.4; viability (ATP), % of control: 78.7; call: inactive

What is on record for Csn1s2b #3?
GFP, % of control: 107; viability (ATP), % of control: 104; call: inactive

Which result is listed for Rhox3a #1?
GFP, % of control: 82.1; viability (ATP), % of control: 46.9; call: inactive

For Rhox3a #2, what does the deposit list?
GFP, % of control: 115; viability (ATP), % of control: 114; call: inactive

For Rhox3a #3, what does the deposit list?
GFP, % of control: 63.3; viability (ATP), % of control: 19.2; call: inactive

What did the screen give for Rps2 #1?
GFP, % of control: 44.9; viability (ATP), % of control: 51.2; call: inactive

What did the screen give for Rps2 #2?
GFP, % of control: 54.4; viability (ATP), % of control: 57.9; call: inactive

What is on record for Rps2 #3?
GFP, % of control: 86.2; viability (ATP), % of control: 100; call: inactive

What did the screen give for Exoc6 #1?
GFP, % of control: 53.2; viability (ATP), % of control: 53.4; call: inactive

With Exoc6 #2, what does the deposit list?
GFP, % of control: 77.3; viability (ATP), % of control: 54.8; call: inactive

What is on record for Exoc6 #3?
GFP, % of control: 98.9; viability (ATP), % of control: 84.3; call: inactive

With Cyp2c40 #1, what does the deposit list?
GFP, % of control: 60.5; viability (ATP), % of control: 53.5; call: inactive

With Cyp2c40 #2, what was measured?
GFP, % of control: 57; viability (ATP), % of control: 43.6; call: inactive

How did the screen score Cyp2c40 #3?
GFP, % of control: 67.3; viability (ATP), % of control: 59.7; call: inactive

How did the screen score A630091E08Rik #1?
GFP, % of control: 69.8; viability (ATP), % of control: 59.4; call: inactive

How did the screen score A630091E08Rik #2?
GFP, % of control: 99.9; viability (ATP), % of control: 80.5; call: inactive

What did the screen give for A630091E08Rik #3?
GFP, % of control: 84.6; viability (ATP), % of control: 99.6; call: inactive

What did the screen give for Doc2a #1?
GFP, % of control: 64; viability (ATP), % of control: 86; call: inactive

For Doc2a #2, what does the deposit list?
GFP, % of control: 164; viability (ATP), % of control: 113; call: active

With Doc2a #3, what does the deposit list?
GFP, % of control: 74.8; viability (ATP), % of control: 91.5; call: inactive

For Cd40 #1, what does the deposit list?
GFP, % of control: 105; viability (ATP), % of control: 115; call: inactive

What did the screen give for Cd40 #2?
GFP, % of control: 65; viability (ATP), % of control: 71.2; call: inactive

What is on record for Cd40 #3?
GFP, % of control: 73.6; viability (ATP), % of control: 46.4; call: inactive

What did the screen give for Pskh1?
GFP, % of control: 85.3; viability (ATP), % of control: 78.9; call: inactive

How did the screen score Or5k3 #1?
GFP, % of control: 79.9; viability (ATP), % of control: 72.8; call: inactive

With Or5k3 #2, what was measured?
GFP, % of control: 39.2; viability (ATP), % of control: 50.3; call: inactive

For Or5k3 #3, what was measured?
GFP, % of control: 103; viability (ATP), % of control: 91.6; call: inactive

For Or2y1 #1, how do the results read?
GFP, % of control: 95.7; viability (ATP), % of control: 76.7; call: inactive

What is on record for Or2y1 #2?
GFP, % of control: 76.7; viability (ATP), % of control: 69.6; call: inactive

What is on record for Or2y1 #3?
GFP, % of control: 56.3; viability (ATP), % of control: 77; call: inactive

With Pcdhb22 #1, what was measured?
GFP, % of control: 82.1; viability (ATP), % of control: 81; call: inactive

What is on record for Pcdhb22 #2?
GFP, % of control: 109; viability (ATP), % of control: 68.3; call: inactive

Which result is listed for Rrm2 #1?
GFP, % of control: 74.9; viability (ATP), % of control: 30.5; call: inactive

For Rrm2 #2, how do the results read?
GFP, % of control: 81.4; viability (ATP), % of control: 42.5; call: inactive

Which result is listed for Socs7 #1?
GFP, % of control: 73.8; viability (ATP), % of control: 77.5; call: inactive

What did the screen give for Socs7 #2?
GFP, % of control: 148; viability (ATP), % of control: 60; call: active

How did the screen score Socs7 #3?
GFP, % of control: 68; viability (ATP), % of control: 54; call: inactive

Records listed so far whose gene name begins with S or s:
Scart2 #1: GFP, % of control = 120; viability (ATP), % of control = 75; call = active
Scart2 #2: GFP, % of control = 0; viability (ATP), % of control = 126; call = inactive
Scart2 #3: GFP, % of control = 89.4; viability (ATP), % of control = 62.6; call = inactive
Socs7 #1: GFP, % of control = 73.8; viability (ATP), % of control = 77.5; call = inactive
Socs7 #2: GFP, % of control = 148; viability (ATP), % of control = 60; call = active
Socs7 #3: GFP, % of control = 68; viability (ATP), % of control = 54; call = inactive
